Data published in PubChem BioAssay AID493014 (National Center for Advancing Translational Sciences (NCATS), 2011).
The other results are listed elsewhere or left out. These are further read-outs of the screen, such as a control signal, another cell line or another target. No call is given for them. Compounds called inactive in the main read-out are mostly missing here. The note in brackets gives the kind of curve behind each potency; many fits are weak.

Experiment: qHTS Assay to Find Inhibitors of Chronic Active B-Cell Receptor Signaling
Conditions: ABC-DLBCL IkBa-CBG/CBR reporter, luminescence ratio (green luciferase fused to IkBa over red control in TMD8 lymphoma cells), 4 h
Summary of the method: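 Doxycycline induced both beetle luciferases in TMD8 lymphoma cells; IKK-driven degradation limits the IkappaBalpha-fused green signal, while red luminescence normalises for cell number and nonspecific effects. Compounds tested up to 46 uM, 4 hrs.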

[1] = measured here: CBR red luminescence, cell number

SMILES | AC50 [1] | AC50 (measured here: IkBa-CBG green luminescence)
COC(=O)c1ccc(NC(=O)c2cccc(N3C(=O)CCC3=O)c2)cc1 | 8.2 µM [falling, partial curve] | 
O[C@@H](c1cc(C(F)(F)F)nc2c(C(F)(F)F)cccc12)[C@H]1CCCCN1 | 2.59 µM [falling, partial curve] | 
CN(C)C(=O)c1ccc(Nc2ncnc3sc4c(c23)CCCCC4)cc1 | 1.58 µM [rising, partial curve, poor fit] | 
N#C/C(=C/c1ccc2c(c1)OCO2)C(=O)NCCc1c[nH]c2ccccc12 | 25.9 µM [falling, partial curve, poor fit] | 
COC(=O)C(NC(=O)c1ccccc1)(Nc1cc(C)cc(C)n1)C(F)(F)F (stereo not drawn) | 11.6 µM [rising, partial curve, poor fit] | 
CN1CCN(CCCNC(=O)c2ccc(/C=C3\Sc4ccccc4N(Cc4ccc(F)cc4)C3=O)cc2)CC1 | 35.5 µM [falling, single point] | 
COc1cc(OC)cc(C(=O)Nc2ccc(-n3cnnn3)c(C)c2)c1 | 7.08 µM [falling, partial curve, poor fit] | 
S=C(NN=C1C2CC3CC(C2)CC1C3)Nc1ccccc1 | 8.2 µM [falling, single point] | 
O=c1c2ccccc2nnn1CSc1nnc(C2COc3ccccc3O2)n1-c1ccccc1 (stereo not drawn) | 12.6 µM [falling, partial curve, poor fit] | 
CCCN(CC(=O)Nc1ccccc1C)C(=O)c1ccc(-c2ccccc2)cc1 | 35.5 µM [falling, partial curve, poor fit] | 
Oc1ccc(-c2csc(Nc3ccccn3)n2)cc1O | 20 µM [falling, single point] | 
COc1cc(NS(=O)(=O)c2ccc3c(c2)n(C)c(=O)n3C)cc(OC)c1 | 5.8 µM [rising, partial curve, poor fit] | 
C/C(=C/c1ccccc1)C(=O)N1CCN(c2ccc(F)cc2)CC1 | 0.355 µM [rising, full curve] | 
Cc1ccc(S(=O)(=O)NNC(=O)C2Cc3c(ccc4ccccc34)O2)cc1 (stereo not drawn) | 8.91 µM [falling, partial curve, poor fit] | 
CC(=O)Nc1cc2c(cc1C(C)=O)OCCO2 | 14.6 µM [falling, single point] | 
CC(=O)Nc1nc(C)c(-c2csc(Nc3cccc(C(C)=O)c3)n2)s1 | 0.631 µM [falling, full curve, poor fit] | 
Cc1nc2c(=O)oc3ccccc3c2n1-c1ccccc1 | 0.082 µM [rising, full curve, poor fit] | 
Cc1c(NC(=O)CSc2nnnn2-c2ccc(F)cc2)c(=O)n(-c2ccccc2)n1C | 25.1 µM [rising, single point] | 
CNC(=O)c1cccc2nc3ccccc3nc12 | 0.501 µM [falling, full curve, poor fit] | 
CCOC(=O)C1=C(C)OC(N)=C(C#N)C1c1cc2ccccc2nc1N1CCCCC1 (stereo not drawn) | 35.5 µM [falling, single point] | 
CC(C)(C)OC(=O)C[C@@H]1C/C=C\C[C@H](CC(=O)N(CCO)Cc2ccccc2)C(=O)N2CCC[C@@H]2COC1=O | 0.00411 µM [rising, full curve, poor fit] | 

SMILES | AC50 [1] | AC50 (measured here: IkBa-CBG green luminescence)
COc1ccc(/C=C/C(=O)NCCc2c[nH]c3ccccc23)cc1OC | 25.1 µM [falling, single point] | 
O=C(O)c1cccc(NC(=S)N/N=C/c2cccnc2)c1 | 11.2 µM [falling, partial curve] | 
CCOC(=O)Cc1csc(NC(=O)c2cccs2)n1 | 10 µM [falling, partial curve, poor fit] | 
Cc1onc(-c2c(F)cccc2Cl)c1C(=O)OCn1nnc2ccccc2c1=O | 29.1 µM [falling, single point] | 
Cc1cc(N2CCN(Cc3cn(C)nc3-c3cccc(Cl)c3)CC2)cc(C)n1 | 8.91 µM [falling, partial curve, poor fit] | 
CCCC(=O)Nc1cccc(NC(=O)c2ccc3c(c2)OCCO3)c1 | 1.16 µM [falling, full curve] | 
CC(=O)Nc1ccccc1NC(=O)C/C(C)=N/NC(=O)c1ccccn1 | 3.98 µM [falling, full curve] | 
O=C(Nc1cccnc1)c1cc(-c2ccccc2O)on1 | 0.251 µM [falling, full curve] | 
Cc1c(C#N)c(N=CN(C)C)c(C(=O)c2ccc(Br)cc2)n1-c1ccc(Cl)cc1 | 23.1 µM [rising, single point] | 
CCC(=O)Nc1cc(-c2nn(C)c(=O)c3ccccc23)ccc1N1CCOCC1 | 0.0058 µM [rising, full curve, poor fit] | 
CC1Oc2ccccc2C=C1/C=N/NC(=O)c1ccccc1 (stereo not drawn) | 20.6 µM [falling, partial curve] | 
Cc1cccc([C@@H]2[C@@H]3C(=O)N(Cc4ccccc4)C(=O)[C@@H]3[C@]3(Cc4ccccc4)C(=O)N(c4cccc(Cl)c4)C(=O)N23)c1 | 1.84 µM [falling, full curve] | 
O=C(NN=Cc1ccc(OC(F)F)cc1)c1ccc(NS(=O)(=O)c2cccs2)cc1 | 4.61 µM [falling, partial curve, poor fit] | 
CCOC(=O)C1=C(C)N=c2s/c(=C/c3cccc(OCC(=O)O)c3)c(=O)n2C1c1ccc(F)cc1 (stereo not drawn) | 3.98 µM [falling, full curve, poor fit] | 
Cn1ccnc1SCC(=O)Nc1cccc([N+](=O)[O-])c1 | 14.1 µM [rising, partial curve, poor fit] | 
CCc1cccc(C)c1N1C(=O)CN(Cc2ccccc2)C1=S | 10 µM [rising, partial curve, poor fit] | 
COc1ccc(C/C(N)=N/OC(=O)CCc2ccccc2)cc1 | 0.891 µM [rising, full curve, poor fit] | 
Cc1cc(Cl)ccc1OCCCC(=O)NCCN1C(=O)S/C(=C\c2cccnc2)C1=O | 29.1 µM [falling, single point] | 
O=c1oc2ccccc2cc1-c1csc(NN=C2CCCC2)n1 | 3.26 µM [rising, single point] | 
Cc1ccc(CC(=O)NCCCc2ccccc2)cc1 | 14.6 µM [rising, partial curve, poor fit] | 
O=C(NCCO)c1nc(C(=O)c2ccccc2)c2ccccc2n1 | 2.91 µM [rising, full curve, poor fit] | 

5 entries from above, set out differently.
SMILES	AC50 [1]	AC50 (measured here: IkBa-CBG green luminescence)
C/C(=C/c1ccccc1)C(=O)N1CCN(c2ccc(F)cc2)CC1	0.355 µM [rising, full curve]	
CC(=O)Nc1cc2c(cc1C(C)=O)OCCO2	14.6 µM [falling, single point]	
Cc1cccc([C@@H]2[C@@H]3C(=O)N(Cc4ccccc4)C(=O)[C@@H]3[C@]3(Cc4ccccc4)C(=O)N(c4cccc(Cl)c4)C(=O)N23)c1	1.84 µM [falling, full curve]	
Cn1ccnc1SCC(=O)Nc1cccc([N+](=O)[O-])c1	14.1 µM [rising, partial curve, poor fit]	
CCc1cccc(C)c1N1C(=O)CN(Cc2ccccc2)C1=S	10 µM [rising, partial curve, poor fit]	

Following part.

SMILES | AC50 [1] | AC50 (measured here: IkBa-CBG green luminescence)
CCCS(=O)(=O)NCCc1sc2nc(-c3ccc(F)cc3)nn2c1C | 11.2 µM [falling, partial curve, poor fit] | 
Cc1ccnc(Nc2nc(-c3ccc(Cl)cc3)cs2)c1 | 22.4 µM [falling, single point] | 
O=C(COc1ccc(Br)cc1)NCCO | 4.61 µM [rising, full curve, poor fit] | 
O=C(Nc1ccc(F)cc1)Nc1ccc(S(=O)(=O)N2CCCC2)cc1 | 23.1 µM [falling, partial curve, poor fit] | 
CCN(CC)C(=O)CSc1nc(N)c(C(=O)Nc2ccc(OC)cc2)s1 | 2.59 µM [rising, partial curve] | 
O=C(COC(=O)CC12CC3CC(CC(C3)C1)C2)Nc1cccnc1Cl | 17.8 µM [falling, single point] | 
Cc1csc(=O)n1CC(=O)OCc1cccc2ccccc12 | 23.1 µM [rising, partial curve, poor fit] | 
O=C(CCS(=O)(=O)c1ccc(Cl)cc1)NCCC1=CCCCC1 | 20 µM [rising, partial curve, poor fit] | 
C/C(CCN1CCc2nc(-c3ccccc3)c(-c3ccccc3)cc2C1)=N\OC[C@@H](C)[C@H](OCc1ccccc1)C(C)C | 29.1 µM [rising, partial curve, poor fit] | 
CCCCNC(=O)CNC(=O)c1nn(-c2ccc(OC)c(Cl)c2)c(=O)c2ccccc12 | 3.98 µM [falling, single point] | 
COc1cc(CN2CCCC(C(=O)Nc3cccc(-n4cccn4)c3)C2)ccc1F (stereo not drawn) | 3.55 µM [falling, partial curve, poor fit] | 
C[C@@H]1CCCCCCCCCCC1=O | 0.631 µM [rising, full curve, poor fit] | 
COC(=O)C(c1cc(OC)c(O)c(OC)c1)(N1CCNC(C)C1)C(F)(F)F (stereo not drawn) | 13 µM [falling, partial curve, poor fit] | 
COc1cc(CNC(=O)c2cccc(COc3ccc(Cl)cc3)c2)cc(OC)c1 | 29.1 µM [falling, single point] | 
CC(=O)Nc1c([N+](=O)[O-])cc2[nH]c(=O)[nH]c2c1[N+](=O)[O-] | 2 µM [falling, full curve, poor fit] | 
Cc1ccc(CN2CCN(CC(=O)N=Nc3c(O)[nH]c4ccccc34)CC2)cc1 | 6.51 µM [rising, partial curve, poor fit] | 
CCOc1cccc(-c2c(C(=O)N/N=C/c3ccc(C)s3)nnn2-c2nonc2N)c1 | 5.62 µM [rising, partial curve, poor fit] | 
O=[N+]([O-])c1cc(N=Nc2ccc3ccccc3c2)ccc1O | 0.398 µM [rising, full curve, poor fit] | 
C/C(CC(=O)Nc1cc(Cl)ccc1Cl)=N\NC(=O)c1ccco1 | 12.6 µM [falling, partial curve, poor fit] | 
CCc1ccc(NC(=O)COC(=O)C2(c3ccc(Cl)cc3)CCCC2)cc1 | 29.1 µM [falling, single point] | 29.1 µM [rising, partial curve, poor fit]
